From patent US6207644A (Zeneca Limited, priority 1996, dated 2001)

Assay: general procedure: Fmoc solid-phase peptide synthesis; Fmoc-Rink Amide MBHA resin; HBTU/HOBT/DIPEA
Details: whole synthesis, scale 1 mmol, acetate salt

PEPTIDE1{[Phv].R.A.A.[IIb].A.A.A.[Papa].[am]}$$$$V2.0
isolated mass (run 1): 700 mg
isolated mass (run 2): 476 mg

HELM strings list residues between dots; [ac] is acetyl, [am] amide, other brackets name non-standard units.
